Data from publication PMC10976826.
No constants are given. Whether binding was seen depends on the method and setting. Binding seen in cells or lysates may run through a third protein. Some entries that bind do so weakly or less than the wild type.

The chains behind the UniProt entries cited, without tags or fusion partners. Residues count along the entry.
UniProt Q9QUK6, residues 26-835: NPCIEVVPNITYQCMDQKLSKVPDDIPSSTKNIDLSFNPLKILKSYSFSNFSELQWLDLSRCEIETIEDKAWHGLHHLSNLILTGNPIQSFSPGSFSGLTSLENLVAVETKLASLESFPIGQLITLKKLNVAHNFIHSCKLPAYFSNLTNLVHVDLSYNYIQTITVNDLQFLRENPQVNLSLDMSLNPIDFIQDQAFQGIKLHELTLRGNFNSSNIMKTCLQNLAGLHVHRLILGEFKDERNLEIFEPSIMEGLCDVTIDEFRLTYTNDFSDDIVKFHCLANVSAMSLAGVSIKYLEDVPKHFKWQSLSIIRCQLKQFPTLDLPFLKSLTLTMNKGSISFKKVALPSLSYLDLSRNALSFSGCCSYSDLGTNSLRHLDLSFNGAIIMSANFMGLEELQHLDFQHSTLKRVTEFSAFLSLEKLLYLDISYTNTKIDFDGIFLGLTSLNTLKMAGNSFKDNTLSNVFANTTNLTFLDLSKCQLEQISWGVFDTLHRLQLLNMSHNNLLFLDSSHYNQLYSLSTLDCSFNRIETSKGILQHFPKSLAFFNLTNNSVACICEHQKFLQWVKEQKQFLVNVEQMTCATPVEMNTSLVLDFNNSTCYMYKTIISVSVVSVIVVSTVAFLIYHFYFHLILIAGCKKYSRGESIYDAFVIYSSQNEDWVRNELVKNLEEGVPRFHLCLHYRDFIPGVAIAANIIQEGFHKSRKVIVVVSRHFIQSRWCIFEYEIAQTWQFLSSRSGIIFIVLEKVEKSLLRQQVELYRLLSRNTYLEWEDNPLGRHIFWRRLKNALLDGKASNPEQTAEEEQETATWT

Biological target: toll-like receptor 4 (TLR4) (mouse (endogenous in BMDMs)) (UniProt Q9QUK6)
Test: co-IP; BMDM lysate (IP lysis buffer, 500 ug protein) with 1 ug anti-TLR4 antibody overnight at 4 °C, protein A/G magnetic beads, blot with anti-Rab5a; cells treated with LPS (1 ug/ml) with or without propofol (50 uM) pretreatment

B1: Rab5a (protein, UniProt Q9CQD1 1-215)
chain: MANRGATRPNGPNTGNKICQFKLVLLGESAVGKSSLVLRFVKGQFHEFQESTIGAAFLTQTVCLDDTTVKFEIWDTAGQERYHSLAPMYYRGAQAAIVVYDITNEESFARAKNWVKELQRQASPNIVIALSGNKADLANKRAVDFQEAQSYADDNSLLFMETSAKTSMNVNEIFMAIAKKLPKNEPQNPGANSARGRGVDLTEPAQPARSQCCSN
binding: binds
